# From article PMC8384837
# Numbering of substitutions follows the chain as printed. The list shows a part of the results. For part of these data: At the low end of the ranking the order means little. For part of these data: Construct or isoform of the protein are uncertain.
# Assays:
# Settings in all cases: yeast three-hybrid, YBZ-1, SC-Leu-His + 0.5 mM 3-AT, 4 days
# [1] = target: T1, PUM1 PUF domain R2-VFQ R3-THE R4-TFR N899V + Y900F + C935T + R936H + Q939E + N971T + H972F + Q975R (UniProt Q14671)
# T1 sequence: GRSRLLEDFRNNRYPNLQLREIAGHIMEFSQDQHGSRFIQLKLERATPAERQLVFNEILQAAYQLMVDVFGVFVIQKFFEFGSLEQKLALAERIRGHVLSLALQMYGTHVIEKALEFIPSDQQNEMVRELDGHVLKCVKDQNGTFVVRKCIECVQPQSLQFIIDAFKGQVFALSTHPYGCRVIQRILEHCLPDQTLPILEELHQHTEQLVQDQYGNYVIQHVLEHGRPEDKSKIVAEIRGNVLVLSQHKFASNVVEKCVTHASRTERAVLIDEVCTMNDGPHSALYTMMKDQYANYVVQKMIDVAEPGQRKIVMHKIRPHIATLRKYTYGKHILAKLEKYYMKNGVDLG
# [2] = target: T2, PUM1 PUF domain R3-THE R4-TFR C935T + R936H + Q939E + N971T + H972F + Q975R (UniProt Q14671)
# T2 sequence: T1 sequence with V72N, F73Y
# [3] = target: T3, PUM1 PUF domain R5-PHQ R6-SWD C1007P + R1008H + N1043S + Y1044W + Q1047D (UniProt Q14671)
# T3 sequence: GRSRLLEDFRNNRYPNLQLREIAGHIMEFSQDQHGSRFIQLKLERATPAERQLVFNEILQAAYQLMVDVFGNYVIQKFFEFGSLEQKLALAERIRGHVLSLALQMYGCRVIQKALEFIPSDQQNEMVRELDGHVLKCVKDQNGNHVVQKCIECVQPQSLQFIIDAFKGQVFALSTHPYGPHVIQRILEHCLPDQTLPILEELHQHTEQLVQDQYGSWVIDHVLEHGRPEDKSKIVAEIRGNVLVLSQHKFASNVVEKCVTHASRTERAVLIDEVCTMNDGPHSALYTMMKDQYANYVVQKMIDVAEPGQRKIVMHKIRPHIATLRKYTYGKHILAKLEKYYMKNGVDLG
# [4] = target: T4, PUM1 PUF domain R6-SWD R7-NPG N1043S + Y1044W + Q1047D + S1079N + N1080P + E1083G (Homo sapiens) (UniProt Q14671)
# T4 sequence: T3 sequence with P180C, H181R, S252N, N253P, E256G
# [5] = target: T5, PUM1 PUF domain R3-THE R4-TFR R7-NPG C935T + R936H + Q939E + N971T + H972F + Q975R + S1079N + N1080P + E1083G (Homo sapiens) (UniProt Q14671)
# T5 sequence: T1 sequence with V72N, F73Y, S252N, N253P, E256G
# [6] = target: T6, PUM1 PUF domain R3-THE R4-TFR R7-NPG C935T + R936H + Q939E + N971T + H972F + Q975R + S1079N + N1080P + E1083G (UniProt Q14671)
# T6 sequence: T1 sequence with V72N, F73Y, S252N, N253P, E256G
sequence,measurement,setting,value
GGCUAGAACUAGUGGAUCCCCCGGCGCCCGGCGGCUCGAGCCCGGGUAAGUCAAAGUCGUCUGCAUGCCGCCGGGCGCCAUGCCUGCAGGUCGACUCUAGAAAACAUG,binding signal (log2 enrichment (interaction score)),[1],-4.93
same,binding signal (log2 enrichment (interaction score)),[2],-7.4
same,binding signal (log2 enrichment (interaction score)),[3],-7.37
same,binding signal (log2 enrichment (interaction score)),[4],-0.15
GGCUAGAACUAGUGGAUCCCCCGGCGCCCGGCGGCUCGAGCCCGGGUAAGUCGGUGCCGUCUGCAUGCCGCCGGGCGCCAUGCCUGCAGGUCGACUCUAGAAAACAUG,binding signal (log2 enrichment (interaction score)),[1],-4.66
same,binding signal (log2 enrichment (interaction score)),[5],< -1.63
GGCUAGAACUAGUGGAUCCCCCGGCGCCCGGCGGCUCGAGCCCGGGUAAGUAUAGUUAGUCUGCAUGCCGCCGGGCGCCAUGCCUGCAGGUCGACUCUAGAAAACAUG,binding signal (log2 enrichment (interaction score)),[1],-5.69
same,binding signal (log2 enrichment (interaction score)),[2],-6.23
same,binding signal (log2 enrichment (interaction score)),[3],< -7.43
GGCUAGAACUAGUGGAUCCCCCGGCGCCCGGCGGCUCGAGCCCGGGUAAGUUUCGAUGGUCUGCAUGCCGCCGGGCGCCAUGCCUGCAGGUCGACUCUAGAAAACAUG,binding signal (log2 enrichment (interaction score)),[1],-5.11
same,binding signal (log2 enrichment (interaction score)),[5],-1.44
GGCUAGAACUAGUGGAUCCCCCGGCGCCCGGCGGCUCGAGCCCGGGUAAGUGUAAUGCGUCUGCAUGCCGCCGGGCGCCAUGCCUGCAGGUCGACUCUAGAAAACAUG,binding signal (log2 enrichment (interaction score)),[1],-6.01
same,binding signal (log2 enrichment (interaction score)),[5],< -1.06
GGCUAGAACUAGUGGAUCCCCCGGCGCCCGGCGGCUCGAGCCCGGGUAAGUGCAGAACGUCUGCAUGCCGCCGGGCGCCAUGCCUGCAGGUCGACUCUAGAAAACAUG,binding signal (log2 enrichment (interaction score)),[1],-5.47
same,binding signal (log2 enrichment (interaction score)),[2],< -7.42
same,binding signal (log2 enrichment (interaction score)),[4],-1.66
GGCUAGAACUAGUGGAUCCCCCGGCGCCCGGCGGCUCGAGCCCGGGUAAGUGGGAGAAGUCUGCAUGCCGCCGGGCGCCAUGCCUGCAGGUCGACUCUAGAAAACAUG,binding signal (log2 enrichment (interaction score)),[1],-5.05
same,binding signal (log2 enrichment (interaction score)),[2],-6.84
same,binding signal (log2 enrichment (interaction score)),[3],< -7.3
same,binding signal (log2 enrichment (interaction score)),[4],-1.67
GGCUAGAACUAGUGGAUCCCCCGGCGCCCGGCGGCUCGAGCCCGGGUAAGUUUAUUAAGUCUGCAUGCCGCCGGGCGCCAUGCCUGCAGGUCGACUCUAGAAAACAUG,binding signal (log2 enrichment (interaction score)),[1],-5.52
same,binding signal (log2 enrichment (interaction score)),[2],-5.26
same,binding signal (log2 enrichment (interaction score)),[4],-0.7
GGCUAGAACUAGUGGAUCCCCCGGCGCCCGGCGGCUCGAGCCCGGGUAAGCUUAAGACGUCUGCAUGCCGCCGGGCGCCAUGCCUGCAGGUCGACUCUAGAAAACAUG,binding signal (log2 enrichment (interaction score)),[1],-5.37
same,binding signal (log2 enrichment (interaction score)),[2],-6.7
same,binding signal (log2 enrichment (interaction score)),[4],-1.06
GGCUAGAACUAGUGGAUCCCCCGGCGCCCGGCGGCUCGAGCCCGGGUAAGUGGAAAAAGUCUGCAUGCCGCCGGGCGCCAUGCCUGCAGGUCGACUCUAGAAAACAUG,binding signal (log2 enrichment (interaction score)),[1],-5.6
same,binding signal (log2 enrichment (interaction score)),[2],< -7.37
same,binding signal (log2 enrichment (interaction score)),[3],-2.76
same,binding signal (log2 enrichment (interaction score)),[4],-0.67
GGCUAGAACUAGUGGAUCCCCCGGCGCCCGGCGGCUCGAGCCCGGGUAAGAAGAGUGAGUCUGCAUGCCGCCGGGCGCCAUGCCUGCAGGUCGACUCUAGAAAACAUG,binding signal (log2 enrichment (interaction score)),[1],-5.71
same,binding signal (log2 enrichment (interaction score)),[5],-1.07
GGCUAGAACUAGUGGAUCCCCCGGCGCCCGGCGGCUCGAGCCCGGGUAAGACGAAGUAGUCUGCAUGCCGCCGGGCGCCAUGCCUGCAGGUCGACUCUAGAAAACAUG,binding signal (log2 enrichment (interaction score)),[1],-5.3
same,binding signal (log2 enrichment (interaction score)),[2],-6.64
same,binding signal (log2 enrichment (interaction score)),[3],-7.34
GGCUAGAACUAGUGGAUCCCCCGGCGCCCGGCGGCUCGAGCCCGGGUAAGGUGACGCCGUCUGCAUGCCGCCGGGCGCCAUGCCUGCAGGUCGACUCUAGAAAACAUG,binding signal (log2 enrichment (interaction score)),[1],-5.63
same,binding signal (log2 enrichment (interaction score)),[6],-2.19
GGCUAGAACUAGUGGAUCCCCCGGCGCCCGGCGGCUCGAGCCCGGGUAAGUACAACUCGUCUGCAUGCCGCCGGGCGCCAUGCCUGCAGGUCGACUCUAGAAAACAUG,binding signal (log2 enrichment (interaction score)),[1],-3.37
same,binding signal (log2 enrichment (interaction score)),[3],-6.63
GGCUAGAACUAGUGGAUCCCCCGGCGCCCGGCGGCUCGAGCCCGGGUAAGUUGAGAACGUCUGCAUGCCGCCGGGCGCCAUGCCUGCAGGUCGACUCUAGAAAACAUG,binding signal (log2 enrichment (interaction score)),[1],-6.3
same,binding signal (log2 enrichment (interaction score)),[5],< -1.35
same,binding signal (log2 enrichment (interaction score)),[3],-7.6

# A section of the results above:
sequence,measurement,setting,value
GGCUAGAACUAGUGGAUCCCCCGGCGCCCGGCGGCUCGAGCCCGGGUAAGUGCAGAACGUCUGCAUGCCGCCGGGCGCCAUGCCUGCAGGUCGACUCUAGAAAACAUG,binding signal (log2 enrichment (interaction score)),[1],-5.47
same,binding signal (log2 enrichment (interaction score)),[2],< -7.42
same,binding signal (log2 enrichment (interaction score)),[4],-1.66
